Experimental data from patent publication US20220056125A1.
Residue numbers refer to the chain shown, from its start. These are yes or no findings as the source states them, for the method shown. Some entries that bind do so weakly or less than the wild type.

Protein sequences, listed by entry. Tags and fused reporters are not part of them. Lines headed by an entry give the natural chain unless they say otherwise; changes in a name come on top.
UniProt P55085: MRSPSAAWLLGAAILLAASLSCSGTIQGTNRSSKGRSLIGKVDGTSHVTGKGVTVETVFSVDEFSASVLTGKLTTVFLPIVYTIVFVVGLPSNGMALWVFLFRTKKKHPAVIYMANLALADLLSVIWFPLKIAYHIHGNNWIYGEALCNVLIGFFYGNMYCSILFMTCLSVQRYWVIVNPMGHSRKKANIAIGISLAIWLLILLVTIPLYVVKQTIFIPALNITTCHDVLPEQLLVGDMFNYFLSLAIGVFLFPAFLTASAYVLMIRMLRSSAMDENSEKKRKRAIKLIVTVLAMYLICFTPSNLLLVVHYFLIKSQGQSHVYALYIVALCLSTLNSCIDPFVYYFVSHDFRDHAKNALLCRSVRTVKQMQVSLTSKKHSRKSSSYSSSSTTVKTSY

T1: recombinant rat PAR-2 (rat) (UniProt Q63645)
T1 sequence: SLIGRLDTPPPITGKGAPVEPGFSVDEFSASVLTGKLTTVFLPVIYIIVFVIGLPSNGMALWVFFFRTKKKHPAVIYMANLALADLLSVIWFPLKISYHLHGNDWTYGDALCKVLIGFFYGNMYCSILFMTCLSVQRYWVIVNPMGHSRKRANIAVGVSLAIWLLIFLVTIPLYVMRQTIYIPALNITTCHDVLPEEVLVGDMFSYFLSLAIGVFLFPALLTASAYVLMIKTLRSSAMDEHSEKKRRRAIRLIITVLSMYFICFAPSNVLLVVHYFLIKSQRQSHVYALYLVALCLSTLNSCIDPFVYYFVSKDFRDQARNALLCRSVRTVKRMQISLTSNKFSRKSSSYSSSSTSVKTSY

T2: rabbit PAR-2 on cells (rabbit) (UniProt G1SHU9)
T2 sequence: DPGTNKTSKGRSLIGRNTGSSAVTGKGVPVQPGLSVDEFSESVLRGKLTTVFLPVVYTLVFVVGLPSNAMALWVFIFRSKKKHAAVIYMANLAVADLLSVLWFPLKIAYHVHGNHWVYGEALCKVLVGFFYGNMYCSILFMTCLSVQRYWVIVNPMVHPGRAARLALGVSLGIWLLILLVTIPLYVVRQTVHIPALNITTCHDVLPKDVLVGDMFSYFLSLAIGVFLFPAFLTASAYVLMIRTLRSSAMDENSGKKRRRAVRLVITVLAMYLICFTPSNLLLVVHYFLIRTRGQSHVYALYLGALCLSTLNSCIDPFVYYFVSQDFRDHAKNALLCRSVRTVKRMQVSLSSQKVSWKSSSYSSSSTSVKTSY

B1: P24E5 (antibody, human IgG4 S228P, kappa, V domains shown)
VH: QVQLVQSGAEVKKPGSSVKVSCKASGFSLSSYGVIWVRQAPGQGLEWMGVIWGNGNTYYNQKFQGRVTITADESTSTAYMELSSLRSEDTAVYYCARWRGYKDYPFDYWGQGTLVTVSS
VL: EIVLTQSPATLSLSPGERATLSCKASQNIYKYLDWYQQKPGQAPRLLIYNTNSLHTGIPARFSGSGSGRDFTLTISSLEPEDFAVYYCLQHNSGWTFGGGTKVEIKR
B2: P24E27 (antibody, human IgG4 S228P, kappa, V domains shown)
VH: B1 VH with S30N
VL: B1 VL with K24R
B3: P24E29 (antibody, human IgG4 S228P, kappa, V domains shown)
VH: B1 VH with S30N
VL: B1 VL with I29V
B4: P24E36 (antibody, human IgG4 S228P, kappa, V domains shown)
VH: B1 VH with S30N
VL: B1 VL with T51A
B5: P24E39 (antibody, human IgG4 S228P, kappa, V domains shown)
VH: B1 VH with S30N
VL: B1 VL with L54R
B6: P24E1102 (antibody, human IgG4 S228P, kappa, V domains shown)
VH: B1 VH with G33A, V34I, I35S, G55Q, T57V, N60A, R99K
VL: B1 VL with K24R, I29V, Y32W, T51A, S53T, L54R, H55A, L89Q, N92H

Assays:
[1] = target: recombinant human PAR-2 (human) (UniProt P55085); test: Biacore SPR on recombinant PAR-2
[2] = target: recombinant human PAR-2 (human) (UniProt P55085); test: Biacore SPR on recombinant PAR-2 (assay not given)
[3] = target: recombinant human PAR-2 (human) (UniProt P55085); test: SPR using PAR-2 preparations
[4] = target: T1, recombinant rat PAR-2 (rat); test: SPR using PAR-2 preparations
[5] = target: guinea pig PAR-2 on cells (guinea pig); test: flow cytometry, transiently transfected CHEM-1 cells
[6] = target: T2, rabbit PAR-2 on cells (rabbit); test: as above
[7] = target: T1, recombinant rat PAR-2 (rat); test: SPR, antibody captured on Protein A chip, recombinant PAR-2 injected

| Binder | binding [1] | binding [2] | also measured |
| --- | --- | --- | --- |
| B1 | binds | – | – |
| B2 | – | binds | – |
| B3 | – | binds | – |
| B4 | binds | – | – |
| B5 | binds | – | – |
| B6 | – | – | binding [3]: binds; binding [4]: binds; binding [5]: binds; binding [6]: binds; binding [7]: binds |
